# Measured values taken from paper PMC7039449, “FMN-dependent oligomerization of putative lactate oxidase from Pediococcus acidilactici” (PLoS ONE, 2020).
# These are yes or no findings as the source states them, for the method shown.
# B1: Pediococcus acidilactici lactate oxidase (enzyme)
# chain: MTMINGYEQSDREEKIDILNLESLEKQAEEIIPAGGFGYIAGGSEDEWTLKQNRMAFHHRQIAPKALSGIEKPELNTEIFGIPLNTPVMMAPAAAQGLAHSQGEKDTARGLAAVGGLMAQSTYSSVSIAETAAAGGDAPQFFQLYMSKDWNFNESLLDEAKKANVKAIILTVDATVDGYREADIKNKFTFPLPMANLIKFSEGNGQGKGIEEIYASAAQNIRPEDVKRIADYTNLPVIVKGIQTPEDAIRAIDAGAAGIYVSNHGGRQLNGGPASFDVLEDIATAVNKQVPIIFDSGVRRGSDVFKALASGADLVALGRPVIYGLALGGAKGVQSVFEHLNHELEIVMQLAGTKTIEDVKNNSLLNIKY
# notes: putative L-lactate oxidase of Pediococcus acidilactici DSM 20284, Uniprot E0NE46; gene cloned from genomic DNA into pNH-TrxT; theoretical monomer mass 39 kDa; The same polypeptide without FMN (colourless fraction, or deflavinated) is a monomer that lacks secondary structure by CD; also called PaLCTO; WT PaLCTO; source: E. coli BL21 (DE3), purified (Ni-NTA, TEV cleavage, second Ni-NTA, SEC); not …
# Columns and labels:
# [1] = target: Pediococcus acidilactici lactate oxidase (Pediococcus acidilactici) (UniProt E0NE46); test: SAXS; SAXS in size-exclusion chromatography mode, monomeric (FMN-free) fraction; SAXS MoW 2.0; both purified
# [2] = target: Pediococcus acidilactici lactate oxidase (Pediococcus acidilactici) (UniProt E0NE46); test: condition: only after chemical removal of FMN (deflavination); SEC; native tetramer deflavinated (250 mM sodium phosphate pH 7.5, 3 M KBr, 10% glycerol, 0.5 mM TCEP, 1 mM EDTA, on ice 4 days, repeated), then SEC in size exclusion buffer; both purified
# [3] = target: Pediococcus acidilactici lactate oxidase (Pediococcus acidilactici) (UniProt E0NE46); test: SEC; analytical SEC of the colourless, FMN-free fraction; Superdex 200 Increase 10/300 calibrated with Bio-Rad standards; 30 mM Hepes pH 7.5, 350 mM NaCl, 0.5 mM TCEP; both purified
binder,measurement,setting,value
B1,binding,[1],no binding (condition: without FMN (monomeric fraction))
same,binding,[2],no binding
same,binding,[3],no binding (condition: without FMN (colourless fraction))
